# Source: PubChem BioAssay AID1985 (Southern Research Specialized Biocontainment Screening …, 2009)
# pIC50: −log10 of the molar value.
# Test system: S. Typhi PhoP-promoter GFP reporter, fluorescence, 4 h
# Experiment: modified counter assay using GFP fluorescence, PhoP regulon inhibitor project, dose response (AID 1985)
compound,measurement,value
CNCCCC12CCC(c3ccccc31)c1ccccc12,pIC50,3.84
